Test results from patent publication US8486891B2, “Nasal calcitonin formulations containing chlorobutanol” (Par Pharmaceutical, Inc., priority 2003, dated 2013).
At least one compound was matched to its structure with a doubt left.

Assays:
rat trachea = settings: chlorobutanol at 0.6% concentration; prior art; cited from earlier work
Penicillium steckii [1] = settings: chlorobutanol at 0.6% in calcitonin nasal pharmaceutical compositions; prior art; cited from earlier work
Penicillium steckii [2] = assay: Preservative activity against the test fungus Penicillium steckii; assay type: cell-based; settings: chlorobutanol less than 0.4%, pH of calcitonin solution less than 4

CC(C)(O)C(Cl)(Cl)Cl [chlorobutanol]
inhibition of ciliary beating frequency of rat trachea (rat trachea): more than 50% | activity against the test fungus Penicillium steckii (Penicillium steckii [1]): insufficient activity | inhibiting the growth of Penicillium steckii (Penicillium steckii [2]): very effective
